In experiment [1] the target is Factor inhibiting hypoxia inducible factor (FIH) (UniProt Q9NWT6). The experiment in a line: crystal structure; peptide (2 mM final) soaked for 14 h into preformed FIH.zinc(II).NOG crystals in crystallisation buffer with 20 % (v/v) glycerol; both purified.
Experiment [2] shares this target. Briefly: crystal structure; co-crystallisation of FIH with Zn(II), NOG and the peptide; vapor diffusion; both purified.

Sequences of proteins named here, by UniProt entry; tags and fusion partners are left off. Residues count along the entry.
UniProt Q9NWT6: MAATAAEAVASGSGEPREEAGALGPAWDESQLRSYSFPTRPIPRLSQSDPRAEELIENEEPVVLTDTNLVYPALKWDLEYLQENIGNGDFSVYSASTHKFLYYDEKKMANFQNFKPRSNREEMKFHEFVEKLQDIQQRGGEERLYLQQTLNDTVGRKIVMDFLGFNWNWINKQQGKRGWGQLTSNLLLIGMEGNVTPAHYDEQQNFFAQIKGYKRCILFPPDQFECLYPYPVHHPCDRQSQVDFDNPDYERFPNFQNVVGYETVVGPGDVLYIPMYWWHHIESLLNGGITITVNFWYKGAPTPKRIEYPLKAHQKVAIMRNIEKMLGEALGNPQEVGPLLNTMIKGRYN
TRPV3 (220-246) peptide (Q8NET8, residues 220-246): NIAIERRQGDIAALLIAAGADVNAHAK
TRPV3 (229-255) peptide (Q8NET8, residues 229-255): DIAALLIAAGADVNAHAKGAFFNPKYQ

No constants are given. Whether binding was seen depends on the method and setting. Some results given as binding are weak or reduced against the parent protein; the word gives no strength.

These results are taken from publication PMC10946520.

For the substance “TRPV3 (220-246) peptide (from UniProt Q8NET8 220-246)”, the binding entry in experiment [1] is listed as “binds”.
In the case of “TRPV3 (229-255) peptide (from UniProt Q8NET8 229-255)”, in experiment [2], the binding result is “binds”.
